Measurements from article doi:10.1101/646224.
These are yes or no findings as the source states them, for the method shown. Binding seen in cells or lysates may run through a third protein. Some entries that bind do so weakly or less than the wild type.

Sequences of proteins named here, by UniProt entry; tags and fusion partners are left off.
UniProt Q5SRE5: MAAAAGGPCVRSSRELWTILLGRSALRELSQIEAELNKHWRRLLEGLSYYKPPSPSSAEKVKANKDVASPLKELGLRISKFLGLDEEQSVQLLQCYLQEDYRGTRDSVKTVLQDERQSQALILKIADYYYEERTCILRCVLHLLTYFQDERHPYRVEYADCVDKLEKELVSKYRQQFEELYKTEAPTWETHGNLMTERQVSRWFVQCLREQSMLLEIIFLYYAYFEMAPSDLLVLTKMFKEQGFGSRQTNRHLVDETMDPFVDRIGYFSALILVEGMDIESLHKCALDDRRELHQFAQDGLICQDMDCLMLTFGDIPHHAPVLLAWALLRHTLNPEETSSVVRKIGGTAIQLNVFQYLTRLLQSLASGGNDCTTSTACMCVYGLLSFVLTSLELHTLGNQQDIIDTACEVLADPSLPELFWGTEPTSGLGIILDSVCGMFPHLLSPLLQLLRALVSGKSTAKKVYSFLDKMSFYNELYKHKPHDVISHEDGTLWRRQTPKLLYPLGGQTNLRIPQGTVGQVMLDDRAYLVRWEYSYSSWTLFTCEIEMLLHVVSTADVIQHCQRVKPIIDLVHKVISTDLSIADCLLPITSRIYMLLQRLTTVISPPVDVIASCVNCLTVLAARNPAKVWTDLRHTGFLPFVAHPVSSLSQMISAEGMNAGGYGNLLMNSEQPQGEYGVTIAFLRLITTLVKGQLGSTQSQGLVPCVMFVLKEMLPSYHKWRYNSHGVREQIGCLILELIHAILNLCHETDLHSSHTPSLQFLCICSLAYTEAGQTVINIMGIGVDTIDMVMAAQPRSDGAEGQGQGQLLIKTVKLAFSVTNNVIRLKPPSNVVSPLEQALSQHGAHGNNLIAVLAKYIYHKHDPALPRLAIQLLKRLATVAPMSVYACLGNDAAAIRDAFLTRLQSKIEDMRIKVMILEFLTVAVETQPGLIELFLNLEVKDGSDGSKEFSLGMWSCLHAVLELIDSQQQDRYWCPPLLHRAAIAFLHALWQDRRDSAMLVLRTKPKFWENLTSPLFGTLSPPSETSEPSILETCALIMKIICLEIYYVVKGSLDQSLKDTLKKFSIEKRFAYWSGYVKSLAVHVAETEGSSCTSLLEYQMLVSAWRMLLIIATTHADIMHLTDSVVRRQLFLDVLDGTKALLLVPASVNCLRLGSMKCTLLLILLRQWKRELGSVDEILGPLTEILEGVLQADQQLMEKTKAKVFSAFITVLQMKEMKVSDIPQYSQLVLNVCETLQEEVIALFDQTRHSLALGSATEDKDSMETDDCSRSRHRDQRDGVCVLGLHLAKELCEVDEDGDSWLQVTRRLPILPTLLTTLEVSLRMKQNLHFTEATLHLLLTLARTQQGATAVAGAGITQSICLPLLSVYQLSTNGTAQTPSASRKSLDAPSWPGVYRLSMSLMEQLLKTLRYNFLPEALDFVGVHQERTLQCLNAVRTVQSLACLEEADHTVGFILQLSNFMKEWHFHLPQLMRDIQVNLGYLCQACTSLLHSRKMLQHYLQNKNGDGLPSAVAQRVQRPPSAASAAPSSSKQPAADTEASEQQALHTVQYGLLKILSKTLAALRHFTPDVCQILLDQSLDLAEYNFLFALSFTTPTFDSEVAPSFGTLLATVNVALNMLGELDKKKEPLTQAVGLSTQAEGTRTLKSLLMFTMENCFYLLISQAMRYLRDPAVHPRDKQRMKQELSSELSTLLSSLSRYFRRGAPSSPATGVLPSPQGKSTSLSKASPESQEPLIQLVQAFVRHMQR
UniProt Q92621: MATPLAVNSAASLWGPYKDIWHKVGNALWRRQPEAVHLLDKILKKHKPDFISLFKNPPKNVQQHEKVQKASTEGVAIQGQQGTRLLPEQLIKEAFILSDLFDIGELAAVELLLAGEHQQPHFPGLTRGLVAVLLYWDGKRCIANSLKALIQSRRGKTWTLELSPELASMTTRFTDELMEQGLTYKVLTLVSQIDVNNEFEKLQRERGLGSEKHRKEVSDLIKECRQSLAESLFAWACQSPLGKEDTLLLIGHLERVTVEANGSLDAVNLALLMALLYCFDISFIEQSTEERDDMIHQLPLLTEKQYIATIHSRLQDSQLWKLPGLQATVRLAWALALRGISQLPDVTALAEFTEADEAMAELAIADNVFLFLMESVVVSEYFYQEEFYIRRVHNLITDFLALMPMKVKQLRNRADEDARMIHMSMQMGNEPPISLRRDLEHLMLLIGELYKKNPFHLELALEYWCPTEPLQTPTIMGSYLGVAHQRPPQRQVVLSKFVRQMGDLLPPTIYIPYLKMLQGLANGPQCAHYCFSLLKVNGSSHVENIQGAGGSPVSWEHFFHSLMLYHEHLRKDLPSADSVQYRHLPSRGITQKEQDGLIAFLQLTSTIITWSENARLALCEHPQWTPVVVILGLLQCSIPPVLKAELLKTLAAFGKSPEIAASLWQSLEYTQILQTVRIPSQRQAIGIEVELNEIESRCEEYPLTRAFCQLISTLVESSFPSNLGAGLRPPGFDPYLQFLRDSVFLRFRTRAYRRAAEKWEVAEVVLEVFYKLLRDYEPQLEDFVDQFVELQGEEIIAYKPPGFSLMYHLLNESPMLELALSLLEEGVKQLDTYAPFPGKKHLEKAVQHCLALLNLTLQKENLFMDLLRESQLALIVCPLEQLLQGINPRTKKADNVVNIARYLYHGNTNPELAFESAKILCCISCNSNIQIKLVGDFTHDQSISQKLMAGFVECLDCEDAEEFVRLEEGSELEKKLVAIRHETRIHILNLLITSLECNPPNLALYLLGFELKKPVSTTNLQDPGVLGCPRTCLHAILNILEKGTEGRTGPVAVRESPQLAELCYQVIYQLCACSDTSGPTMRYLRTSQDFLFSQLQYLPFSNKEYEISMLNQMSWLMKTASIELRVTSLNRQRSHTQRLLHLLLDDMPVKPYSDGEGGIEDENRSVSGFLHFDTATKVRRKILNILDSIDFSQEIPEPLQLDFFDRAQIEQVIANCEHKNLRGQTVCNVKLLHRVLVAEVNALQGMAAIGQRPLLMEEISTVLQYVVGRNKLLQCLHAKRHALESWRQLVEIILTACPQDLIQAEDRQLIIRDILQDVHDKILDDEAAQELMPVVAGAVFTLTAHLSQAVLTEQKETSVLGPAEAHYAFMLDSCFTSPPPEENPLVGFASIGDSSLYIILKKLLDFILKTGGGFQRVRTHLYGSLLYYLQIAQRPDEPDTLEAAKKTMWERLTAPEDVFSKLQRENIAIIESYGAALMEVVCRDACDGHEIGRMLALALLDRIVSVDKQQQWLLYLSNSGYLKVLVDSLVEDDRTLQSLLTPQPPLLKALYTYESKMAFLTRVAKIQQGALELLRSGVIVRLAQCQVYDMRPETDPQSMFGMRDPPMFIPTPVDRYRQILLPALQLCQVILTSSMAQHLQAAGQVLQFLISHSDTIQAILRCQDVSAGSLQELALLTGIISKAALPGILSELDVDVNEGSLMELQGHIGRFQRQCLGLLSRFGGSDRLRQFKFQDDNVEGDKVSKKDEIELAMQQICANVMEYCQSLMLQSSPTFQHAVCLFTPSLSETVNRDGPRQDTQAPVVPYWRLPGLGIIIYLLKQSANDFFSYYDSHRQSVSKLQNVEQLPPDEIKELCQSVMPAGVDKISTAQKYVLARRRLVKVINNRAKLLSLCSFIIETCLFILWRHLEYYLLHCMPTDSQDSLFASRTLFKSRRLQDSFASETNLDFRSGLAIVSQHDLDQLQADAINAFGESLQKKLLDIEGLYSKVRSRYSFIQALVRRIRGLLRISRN

B1: Nup93 (protein, UniProt Q8N1F7 1-819)
chain: MDTEGFGELLQQAEQLAAETEGISELPHVERNLQEIQQAGERLRSRTLTRTSQETADVKASVLLGSRGLDISHISQRLESLSAATTFEPLEPVKDTDIQGFLKNEKDNALLSAIEESRKRTFGMAEEYHRESMLVEWEQVKQRILHTLLASGEDALDFTQESEPSYISDVGPPGRSSLDNIEMAYARQIYIYNEKIVNGHLQPNLVDLCASVAELDDKSISDMWTMVKQMTDVLLTPATDALKNRSSVEVRMEFVRQALAYLEQSYKNYTLVTVFGNLHQAQLGGVPGTYQLVRSFLNIKLPAPLPGLQDGEVEGHPVWALIYYCMRCGDLLAASQVVNRAQHQLGEFKTWFQEYMNSKDRRLSPATENKLRLHYRRALRNNTDPYKRAVYCIIGRCDVTDNQSEVADKTEDYLWLKLNQVCFDDDGTSSPQDRLTLSQFQKQLLEDYGESHFTVNQQPFLYFQVLFLTAQFEAAVAFLFRMERLRCHAVHVALVLFELKLLLKSSGQSAQLLSHEPGDPPCLRRLNFVRLLMLYTRKFESTDPREALQYFYFLRDEKDSQGENMFLRCVSELVIESREFDMILGKLENDGSRKPGVIDKFTSDTKPIINKVASVAENKGLFEEAAKLYDLAKNADKVLELMNKLLSPVVPQISAPQSNKERLKNMALSIAERYRAQGISANKFVDSTFYLLLDLITFFDEYHSGHIDRAFDIIERLKLVPLNQESVEERVAAFRNFSDEIRHNLSEVLLATMNILFTQFKRLKGTSPSSSSRPQRVIEDRDSQLRSQARTLITFAGMIPYRTSGDTNARLVQMEVLMN
B2: CTCF (protein, UniProt P49711 1-727)
chain: MEGDAVEAIVEESETFIKGKERKTYQRRREGGQEEDACHLPQNQTDGGEVVQDVNSSVQMVMMEQLDPTLLQMKTEVMEGTVAPEAEAAVDDTQIITLQVVNMEEQPINIGELQLVQVPVPVTVPVATTSVEELQGAYENEVSKEGLAESEPMICHTLPLPEGFQVVKVGANGEVETLEQGELPPQEDPSWQKDPDYQPPAKKTKKTKKSKLRYTEEGKDVDVSVYDFEEEQQEGLLSEVNAEKVVGNMKPPKPTKIKKKGVKKTFQCELCSYTCPRRSNLDRHMKSHTDERPHKCHLCGRAFRTVTLLRNHLNTHTGTRPHKCPDCDMAFVTSGELVRHRRYKHTHEKPFKCSMCDYASVEVSKLKRHIRSHTGERPFQCSLCSYASRDTYKLKRHMRTHSGEKPYECYICHARFTQSGTMKMHILQKHTENVAKFHCPHCDTVIARKSDLGVHLRKQHSYIEQGKKCRYCDAVFHERYALIQHQKSHKNEKRFKCDQCDYACRQERHMIMHKRTHTGEKPYACSHCDKTFRQKQLLDMHFKRYHDPNFVPAAFVCSKCGKTFTRRNTMARHADNCAGPDGVEGENGGETKKSKRGRKRKMRSKKEDSSDSENAEPDLDDNEDEEEPAVEIEPEPEPQPVTPAPPPAKKRRGRPPGRTNQPKQNQPTAIIQVEDQNTGAIENIIVEVKKEPDAEPAEGEEEEAQPAATDAPNGDLTPEMILSMMDR

biological target: Nup188 (human (endogenous in NT2/D1)) (UniProt Q5SRE5); assay: co-IP

Molecule | binding
Nup205 (from UniProt Q92621 1-2012) | no binding
B1 | binds
B2 | no binding
